{"source": "PubChem BioAssay AID1259405 – NCATS, 2018", "aim": "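Knock-downs that lift recombinant protein yield in hamster ovary cells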 (primary screen)", "cell system": "Chinese hamster CHO-K1 ovary cells with stable secreted eGFP expression", "reagent": "single siRNA against mouse genes, 0.8 pmol siRNA per well (2 µl of 400 nM stock)", "duration": "3 days", "measurement": "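Percent of the per-plate non-targeting control median for intracellular GFP per well by laser scanning cytometry and for cell viability by ATP luminescence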", "scale": "GFP, % of control: higher = more GFP per well, higher productivity; viability (ATP), % of control: higher = more viable cells (more ATP)", "hit rule": "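Called active when intracellular GFP, relative to negative control, is at or above 120%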", "note": "Here is a random part of about 50,000 deposited reagents. Of all reagents, about 4,000 (8%) are marked active. 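Mouse siRNA library applied to hamster cells; one well for each siRNA.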 A number with no mark means an inactive call."}
{"gene symbol": "Zfp764", "PubChem SID": "SID363555334", "GFP, % of control": 108, "viability (ATP), % of control": 88.2}
{"gene symbol": "Zfp764", "PubChem SID": "SID363563995", "GFP, % of control": 87.3, "viability (ATP), % of control": 68}
{"gene symbol": "Zfp764", "PubChem SID": "SID363587541", "GFP, % of control": 114, "viability (ATP), % of control": 113}
{"gene symbol": "Aco2", "PubChem SID": "SID363569289", "GFP, % of control": 100, "viability (ATP), % of control": 116}
{"gene symbol": "Aco2", "PubChem SID": "SID363583721", "GFP, % of control": 66.9, "viability (ATP), % of control": 82.2}
{"gene symbol": "Or1ab2", "PubChem SID": "SID363554214", "GFP, % of control": 79.8, "viability (ATP), % of control": 57.9}
{"gene symbol": "Or1ab2", "PubChem SID": "SID363567661", "GFP, % of control": "126 (active)", "viability (ATP), % of control": 75.2}
{"gene symbol": "Or1ab2", "PubChem SID": "SID363585018", "GFP, % of control": 91.1, "viability (ATP), % of control": 99.9}

Called active (from the list above):
{"gene symbol": "Or1ab2", "PubChem SID": "SID363567661", "GFP, % of control": "126 (active)", "viability (ATP), % of control": 75.2}

The list goes on.
{"gene symbol": "Zfp933", "PubChem SID": "SID363541140", "GFP, % of control": 105, "viability (ATP), % of control": 94.9}
{"gene symbol": "Zfp933", "PubChem SID": "SID363555767", "GFP, % of control": 86.4, "viability (ATP), % of control": 104}
{"gene symbol": "Zfp933", "PubChem SID": "SID363566056", "GFP, % of control": 102, "viability (ATP), % of control": 83.5}
{"gene symbol": "Slc24a4", "PubChem SID": "SID363574805", "GFP, % of control": 74.2, "viability (ATP), % of control": 51.9}
{"gene symbol": "Slc24a4", "PubChem SID": "SID363575861", "GFP, % of control": "127 (active)", "viability (ATP), % of control": 71.7}
{"gene symbol": "Slc24a4", "PubChem SID": "SID363580437", "GFP, % of control": 80.1, "viability (ATP), % of control": 80.9}
{"gene symbol": "Ramp1", "PubChem SID": "SID363568630", "GFP, % of control": 68.5, "viability (ATP), % of control": 76.6}
{"gene symbol": "Ramp1", "PubChem SID": "SID363576022", "GFP, % of control": 62.8, "viability (ATP), % of control": 58.5}
{"gene symbol": "Ramp1", "PubChem SID": "SID363578838", "GFP, % of control": 43.8, "viability (ATP), % of control": 53.3}
